Results from ChEMBL document CHEMBL1155799 (Bioorg Med Chem, 2008).

Sequences of proteins named here, by UniProt entry; tags and fusion partners are left off.
UniProt Q63380, whole entry: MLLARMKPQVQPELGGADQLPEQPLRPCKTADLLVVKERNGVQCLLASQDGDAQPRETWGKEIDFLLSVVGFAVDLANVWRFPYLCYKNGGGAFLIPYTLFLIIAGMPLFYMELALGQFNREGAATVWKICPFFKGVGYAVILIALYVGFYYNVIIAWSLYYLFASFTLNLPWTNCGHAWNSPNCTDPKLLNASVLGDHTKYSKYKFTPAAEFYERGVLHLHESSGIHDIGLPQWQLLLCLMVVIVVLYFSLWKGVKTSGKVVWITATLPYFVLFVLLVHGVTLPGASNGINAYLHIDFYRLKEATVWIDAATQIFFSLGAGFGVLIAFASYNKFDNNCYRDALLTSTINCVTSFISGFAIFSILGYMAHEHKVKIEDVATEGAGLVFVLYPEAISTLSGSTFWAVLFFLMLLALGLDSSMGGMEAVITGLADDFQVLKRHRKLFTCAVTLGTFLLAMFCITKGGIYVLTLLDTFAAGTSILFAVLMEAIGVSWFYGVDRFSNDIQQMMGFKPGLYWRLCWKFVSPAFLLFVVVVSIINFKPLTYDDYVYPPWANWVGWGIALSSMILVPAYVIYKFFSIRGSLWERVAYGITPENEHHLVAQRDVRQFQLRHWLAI

Target: Transporter (Rattus norvegicus, UniProt Q63380)

| Compound | Ki [µM] |
| --- | --- |
| Cc1cc2c(s1)Nc1ccccc1N=C2N1CCN(C)CC1 [OLANZAPINE] | 2 |
| O=C(CCCN1CCC(O)(c2ccc(Cl)cc2)CC1)c1ccc(F)cc1 [HALOPERIDOL] | 5.5 |
